# Experimental data taken from the supplement of paper PMC8728848.
# Some of the results follow.
# B1: LERP (Drosophila melanogaster), B7Z0Q8 (protein)
# chain: MRCSLQKDCAAPTQENFRQMRFPIVISLLLLLFCSGESVAADAANQLKFSTTECKLKEPIYGSTFDFSGLHSDLAHVVKSMNIGGDQFEFNICGNLSRTCNGESNVAACLKRQGKEYILGRQHELFYNNGNMFLKYKSGAKCDNGTADKPNYQLHVMFSCDYTLDAQPMHVTPYANEVCSFYISYRTPLACLSIPEGLQSNSCRVGDTKSNGTFDLMPLSDSNYHTSNRQGAFFVINVCKPVLYGENSMCPAGSSVCLFDSKATNPKERFINFGNVQTHPVVEKGQLLLRHESPTPCAKNSSANYTSVIYFSCDKFIRNAHPEFAGLGADSCTYQFNFATPLACNDLKPCTAFTSTNELLDLSSLSSKPARTLLKDGKNYTIAVCAHAGAPCQENGGACYEQNSTTISLGNSNSQLRFNQTGSLYLLYEDGAECSTATGMRRWSTKIEFVCANNATKDNGASTAGGSDSLKIIEDSNCQLLIQYQTPLACREPIRCKATTYVDHTNDGLGSSGDELIDLTPLISATDNYEARVELPASMEHLVPKTTKFFLNVCRPLVPKYQLGCAGGSAACMAKVTAAGAPEEERSMGFPLVSLTQRNRTFAELAYLKGDPCPTDNTSELSTHILFNCNMRAGRGQPVLRSVEDCAYRFEWETNVFCPPHECTFSADTCDLVHDELGRRFNFKSAPFTKDGKIEIDYNATKMSVNICGAHRKAMTDYSQALVNIFFTHESPNCGREGTMNVQIRLICSDQTESSSTISSDQQCNLLYVQRTPSICEFLSLGATQQNFESNGSTSSSTSSSSTSTTTSTTTQASPAGKPTKAATSTTTTTVGPDPAATPIGPTASVGTILGAILSVTFCVTCLGLLAFSPARRQRIRRLFRRSNSAVRYSRVQSNEEANLLLEPNGEFTESDDDMLL
# Assays:
# Test in all cases: glycan array binding signal (z-score within array); higher = stronger binding
# Conditions in all cases: glycan notation: IUPAC condensed, linker removed
# [1] = target: Fuc(a1-2)[GalNAc(a1-3)]Gal(b1-4)GlcNAc(b1-3)Gal(b1-4)GlcNAc
# Procedure, shortened: (§1)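 Glycan array data were curated from 3228 arrays in the Consortium for Functional Glycomics database and kept only where the protein sequence was available. Glycan names were converted to IUPAC-condensed notation, and columns mapping to the same glycan were averaged. The binding signal is a within-array Z-score, averaged across arrays of the same protein sequence at different concentrations or buffers and across linkers. Negative Z-scores can be read as non-binding.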
# [2] = target: Fuc(a1-2)[GalNAc(a1-3)]Gal(b1-4)GlcNAc(b1-3)Gal(b1-4)GlcNAc(b1-3)Gal(b1-4)GlcNAc
# Procedure, shortened: as §1
# [3] = target: Fuc(a1-2)[GalNAc(a1-3)]Gal(b1-4)[Fuc(a1-3)]GlcNAc
# Procedure, shortened: as §1
# [4] = target: Fuc(a1-2)[GalNAc(a1-4)]Gal(b1-4)GlcNAc
# Procedure, shortened: as §1
# [5] = target: Fuc(a1-2)[GalNAc(b1-3)]Gal
# Procedure, shortened: as §1
# Fuc(a1-3)GlcNAc = target: Fuc(a1-3)GlcNAc
# Procedure, shortened: as §1
# [6] = target: Fuc(a1-3)[Gal(b1-4)]Glc6S
# Procedure, shortened: as §1
# [7] = target: Fuc(a1-3)[Gal(b1-4)]GlcNAc
# Procedure, shortened: as §1
# [8] = target: Fuc(a1-3)[Gal(b1-4)]GlcNAc(b1-2)Man(a1-3)[Fuc(a1-3)[Gal(b1-4)]GlcNAc(b1-2)Man(a1-6)]Man(b1-4)GlcNAc(b1-4)GlcNAc
# Procedure, shortened: as §1
# [9] = target: Fuc(a1-3)[Gal(b1-4)]GlcNAc(b1-3)Gal(b1-3)[Fuc(a1-4)]GlcNAc
# Procedure, shortened: as §1
# [10] = target: Fuc(a1-3)[Gal(b1-4)]GlcNAc(b1-3)GalNAc
# Procedure, shortened: as §1
# [11] = target: Fuc(a1-3)[Gal(b1-4)]GlcNAc(b1-4)Gal(b1-4)[Fuc(a1-3)]GlcNAc
# Procedure, shortened: as §1
# [12] = target: Fuc(a1-3)[Gal(b1-4)]GlcNAc(b1-4)Gal(b1-4)[Fuc(a1-3)]GlcNAc(b1-4)Gal(b1-4)[Fuc(a1-3)]GlcNAc
# Procedure, shortened: as §1
# [13] = target: Fuc(a1-3)[Gal(b1-4)]GlcNAc(b1-6)[Gal(b1-3)GlcNAc(b1-3)]Gal(b1-4)Glc
# Procedure, shortened: as §1
# [14] = target: Fuc(a1-3)[Gal(b1-4)]GlcNAc6S
# Procedure, shortened: as §1
# [15] = target: Fuc(a1-3)[Gal3S(b1-4)]GlcNAc
# Procedure, shortened: as §1
# [16] = target: Fuc(a1-3)[Gal3S(b1-4)]GlcNAc6S
# Procedure, shortened: as §1
# [17] = target: Fuc(a1-3)[GalNAc(b1-4)]GlcNAc
# Procedure, shortened: as §1
# Fuc(a1-4)GlcNAc = target: Fuc(a1-4)GlcNAc
# Procedure, shortened: as §1
# Fuc(b1-3)GlcNAc = target: Fuc(b1-3)GlcNAc
# Procedure, shortened: as §1
# Gal(a1-2)Gal = target: Gal(a1-2)Gal
# Procedure, shortened: as §1
# Gal(a1-3)Gal = target: Gal(a1-3)Gal
# Procedure, shortened: as §1
# Gal(a1-3)Gal(b1-3)GlcNAc = target: Gal(a1-3)Gal(b1-3)GlcNAc
# Procedure, shortened: as §1
# [18] = target: Gal(a1-3)Gal(b1-3)GlcNAc(b1-2)Man(a1-3)[Gal(a1-3)Gal(b1-3)GlcNAc(b1-2)Man(a1-6)]Man(b1-4)GlcNAc(b1-4)GlcNAc
# Procedure, shortened: as §1
# [19] = target: Gal(a1-3)Gal(b1-3)[Fuc(a1-4)]GlcNAc(b1-2)Man(a1-3)[Gal(a1-3)Gal(b1-3)[Fuc(a1-4)]GlcNAc(b1-2)Man(a1-6)]Man(b1-4)GlcNAc(b1-4)GlcNAc
# Procedure, shortened: as §1
# Gal(a1-3)Gal(b1-4)Glc = target: Gal(a1-3)Gal(b1-4)Glc
# Procedure, shortened: as §1
# Gal(a1-3)Gal(b1-4)GlcNAc = target: Gal(a1-3)Gal(b1-4)GlcNAc
# Procedure, shortened: as §1
# [20] = target: Gal(a1-3)Gal(b1-4)GlcNAc(b1-3)GalNAc
# Procedure, shortened: as §1
# [21] = target: Gal(a1-3)Gal(b1-4)[Fuc(a1-3)]GlcNAc
# Procedure, shortened: as §1
# [22] = target: Gal(a1-3)Gal(b1-4)[Fuc(a1-3)]GlcNAc(b1-2)Man(a1-3)[Gal(a1-3)Gal(b1-4)[Fuc(a1-3)]GlcNAc(b1-2)Man(a1-6)]Man(b1-4)GlcNAc(b1-4)GlcNAc
# Procedure, shortened: as §1
# Gal(a1-3)GalNAc = target: Gal(a1-3)GalNAc
# Procedure, shortened: as §1
# [23] = target: Gal(a1-3)[Gal(a1-4)]Gal(b1-4)GlcNAc
# Procedure, shortened: as §1
# [24] = target: Gal(a1-4)Gal(b1-3)GlcNAc(b1-2)Man(a1-3)[Gal(a1-4)Gal(b1-3)GlcNAc(b1-2)Man(a1-6)]Man(b1-4)GlcNAc(b1-4)GlcNAc
# Procedure, shortened: as §1
# Gal(a1-4)Gal(b1-4)Glc = target: Gal(a1-4)Gal(b1-4)Glc
# Procedure, shortened: as §1
# Gal(a1-4)Gal(b1-4)GlcNAc = target: Gal(a1-4)Gal(b1-4)GlcNAc
# Procedure, shortened: as §1
# [25] = target: Gal(a1-4)Gal(b1-4)GlcNAc(b1-2)Man(a1-3)[Gal(a1-4)Gal(b1-4)GlcNAc(b1-2)Man(a1-6)]Man(b1-4)GlcNAc(b1-4)GlcNAc
# Procedure, shortened: as §1
# [26] = target: Gal(a1-4)Gal(b1-4)GlcNAc(b1-3)Gal(b1-4)Glc
# Procedure, shortened: as §1
# Gal(a1-4)GlcNAc = target: Gal(a1-4)GlcNAc
# Procedure, shortened: as §1
# Gal(a1-6)Glc = target: Gal(a1-6)Glc
# Procedure, shortened: as §1
# Gal(b1-2)Gal = target: Gal(b1-2)Gal
# Procedure, shortened: as §1
# Gal(b1-3)Gal = target: Gal(b1-3)Gal
# Procedure, shortened: as §1
# Gal(b1-3)Gal(b1-4)GlcNAc = target: Gal(b1-3)Gal(b1-4)GlcNAc
# Procedure, shortened: as §1
# [27] = target: Gal(b1-3)Gal(b1-4)GlcNAc(b1-2)Man(a1-3)[Gal(b1-3)Gal(b1-4)GlcNAc(b1-2)Man(a1-6)]Man(b1-4)GlcNAc(b1-4)GlcNAc
# Procedure, shortened: as §1
# Gal(b1-3)GalNAc = target: Gal(b1-3)GalNAc
# Procedure, shortened: as §1
# [28] = target: Gal(b1-3)GalNAc(a1-3)[Fuc(a1-2)]Gal(b1-4)Glc
# Procedure, shortened: as §1
binder,measurement,setting,value
B1,glycan array binding signal (z-score),[1],1.31
same,glycan array binding signal (z-score),[2],-0.17
same,glycan array binding signal (z-score),[3],1.65
same,glycan array binding signal (z-score),[4],-0.461
same,glycan array binding signal (z-score),[5],-0.534
same,glycan array binding signal (z-score),Fuc(a1-3)GlcNAc,-0.507
same,glycan array binding signal (z-score),[6],-0.768
same,glycan array binding signal (z-score),[7],-0.319
same,glycan array binding signal (z-score),[8],-0.527
same,glycan array binding signal (z-score),[9],-0.349
same,glycan array binding signal (z-score),[10],0.32
same,glycan array binding signal (z-score),[11],1.21
same,glycan array binding signal (z-score),[12],-0.153
same,glycan array binding signal (z-score),[13],0.093
same,glycan array binding signal (z-score),[14],0.023
same,glycan array binding signal (z-score),[15],0.568
same,glycan array binding signal (z-score),[16],0.218
same,glycan array binding signal (z-score),[17],0.429
same,glycan array binding signal (z-score),Fuc(a1-4)GlcNAc,0.112
same,glycan array binding signal (z-score),Fuc(b1-3)GlcNAc,-0.045
same,glycan array binding signal (z-score),Gal(a1-2)Gal,0.982
same,glycan array binding signal (z-score),Gal(a1-3)Gal,-0.266
same,glycan array binding signal (z-score),Gal(a1-3)Gal(b1-3)GlcNAc,-0.704
same,glycan array binding signal (z-score),[18],1.82
same,glycan array binding signal (z-score),[19],0.657
same,glycan array binding signal (z-score),Gal(a1-3)Gal(b1-4)Glc,1.04
same,glycan array binding signal (z-score),Gal(a1-3)Gal(b1-4)GlcNAc,-0.471
same,glycan array binding signal (z-score),[20],0.511
same,glycan array binding signal (z-score),[21],-0.724
same,glycan array binding signal (z-score),[22],0.236
same,glycan array binding signal (z-score),Gal(a1-3)GalNAc,-0.56
same,glycan array binding signal (z-score),[23],-0.47
same,glycan array binding signal (z-score),[24],0.7
same,glycan array binding signal (z-score),Gal(a1-4)Gal(b1-4)Glc,0.234
same,glycan array binding signal (z-score),Gal(a1-4)Gal(b1-4)GlcNAc,-0.629
same,glycan array binding signal (z-score),[25],-0.39
same,glycan array binding signal (z-score),[26],2.8
same,glycan array binding signal (z-score),Gal(a1-4)GlcNAc,-0.583
same,glycan array binding signal (z-score),Gal(a1-6)Glc,-1.03
same,glycan array binding signal (z-score),Gal(b1-2)Gal,1.68
same,glycan array binding signal (z-score),Gal(b1-3)Gal,0.515
same,glycan array binding signal (z-score),Gal(b1-3)Gal(b1-4)GlcNAc,0.358
same,glycan array binding signal (z-score),[27],-0.06
same,glycan array binding signal (z-score),Gal(b1-3)GalNAc,0.158
same,glycan array binding signal (z-score),[28],-0.768

# 2 entries picked at random from the list so far:
binder,measurement,setting,value
B1,glycan array binding signal (z-score),[21],-0.724
same,glycan array binding signal (z-score),Gal(a1-2)Gal,0.982
